Measured values published in PubChem BioAssay AID1671190 (National Center for Advancing Translational Sciences (NCATS), 2021).
Several values for one entry are separate records, joined by “and”; a condition that tells them apart may be missing. Equal values may be shown once. Screen size: about 580,000 compounds; about 6,100 (1.1%) were called active. Inconclusive results, whose numbers are uncertain, are shown with a selection of clear calls. Calls follow the shape of the dose curve; as a rule, active = well fitted inhibition curve with a large enough effect; inconclusive = small, poorly fitted or top-dose-only effect, or another doubt; inactive = no such curve, though single readings can be large or run the other way. Potencies of inconclusive entries are doubtful fits and often do not repeat.

Protein sequences, listed by entry. Tags and fused reporters are not part of them. Lines headed by an entry give the natural chain unless they say otherwise; changes in a name come on top.
UniProt P18054: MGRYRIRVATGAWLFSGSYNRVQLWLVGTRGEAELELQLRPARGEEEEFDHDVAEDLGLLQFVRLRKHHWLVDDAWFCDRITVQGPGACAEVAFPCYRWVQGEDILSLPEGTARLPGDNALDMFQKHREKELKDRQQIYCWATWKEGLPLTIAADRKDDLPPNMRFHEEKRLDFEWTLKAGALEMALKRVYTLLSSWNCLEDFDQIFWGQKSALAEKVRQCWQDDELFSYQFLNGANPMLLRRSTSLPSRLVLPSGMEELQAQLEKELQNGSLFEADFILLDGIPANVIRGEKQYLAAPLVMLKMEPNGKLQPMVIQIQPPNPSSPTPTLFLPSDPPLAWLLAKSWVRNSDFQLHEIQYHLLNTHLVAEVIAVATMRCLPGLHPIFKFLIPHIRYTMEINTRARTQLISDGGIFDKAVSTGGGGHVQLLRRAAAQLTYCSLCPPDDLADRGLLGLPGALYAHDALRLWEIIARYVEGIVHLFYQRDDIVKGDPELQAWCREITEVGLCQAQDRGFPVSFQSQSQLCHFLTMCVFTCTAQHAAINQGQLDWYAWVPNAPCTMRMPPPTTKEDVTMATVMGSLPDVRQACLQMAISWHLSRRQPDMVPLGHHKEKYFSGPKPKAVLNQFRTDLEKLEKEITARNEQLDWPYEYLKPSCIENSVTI

biological target: Polyunsaturated fatty acid lipoxygenase ALOX12 (Homo sapiens) (UniProt P18054); assay: Primary qHTS assay for inhibitors of human arachidonate 12S-lipoxygenase (ALOX12): Round 2; details: purified 12hLO, xylenol orange hydroperoxide absorbance; activity change, negative = inhibition: at 108 µM (top of the series)
Summary of the method: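 Hydroperoxide product was detected by ferrous iron/xylenol orange as the 573 to 405 nm absorbance ratio. Arachidonic acid at 40 uM (final) was turned over for 30 min at room temperature by 150 nM human 12hLO, pH 7.0 Hepes buffer, after 15 min compound preincubation.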
% is scaled to controls: 0 for no effect and ±100 for the full control effect; potency is read from the fitted curve at half-maximal effect.

| SMILES | Potency | activity change, negative = inhibition |
| --- | --- | --- |
| CC(C)CCOc1ccc(CCN)cc1 | inactive |  |
| Cc1ncc2c(c1CNCC1(O)CNCCOC1)CCNC2 (stereo not given) | inconclusive: 35.5 µM [inhibitor, single point] |  |
| NCCc1c[nH]c2ccc(OCc3ccccc3)cc12 | inconclusive: 112 µM [inhibitor, single point] |  |
| CC(Cc1ccc(Cl)cc1)NC(=O)CCCNC(=O)C1CC1 (stereo not given) | inconclusive: 56.2 µM [inhibitor, partial curve, poor fit] |  |
| O=P(/C(=N/O)N1CCOCC1)(N1CCOCC1)N1CCOCC1 | inconclusive: 25.1 µM [inhibitor, single point] |  |
| CC1=NOC2(CCCN(CC3CCCCC3)C2)C1 (stereo not given) |  | inactive: 3.37% [at 12.5 µM] |
| O=c1[nH]c(O)c(/C=C2\C=NN=C2c2ccccc2)c(=O)[nH]1 | inconclusive: 44.7 µM [inhibitor, partial curve, poor fit] |  |
| CCCn1c(C(=O)c2ccccc2)nc2ccccc21 | inconclusive: 100 µM [inhibitor, single point] |  |
| OCC1CN(C2CCC2)CC12CCN(Cc1cccnc1)CC2 (stereo not given) | inactive |  |
| CSCCC(c1nnnn1Cc1ccccc1)N1CCC(n2c(=O)[nH]c3ccccc32)CC1 (stereo not given) | inconclusive: 44.7 µM [inhibitor, partial curve, poor fit] |  |
| OC(COCc1ccc(Cl)cc1)CN1CC=C(c2ccccc2)CC1 (stereo not given) | inconclusive: 15.8 µM [inhibitor, partial curve, poor fit] and inconclusive: 39.8 µM [inhibitor, partial curve, poor fit] |  |
| Cn1cc(CN2CCN(C(=O)Cc3ccsc3)CC2)ccc1=O | inactive |  |
| Cc1cc(CN2CCC3(C2)NC(=O)c2ccccc2O3)no1 (stereo not given) | inconclusive: 31.6 µM [inhibitor, partial curve, poor fit] |  |
| Cc1ccc(C(=O)NC[C@H]2C[C@@H]3CCN2C[C@@H]3c2cc(-c3cccs3)nn2C)cc1 | inactive |  |
| O=C(OCC(=O)c1ccc([N+](=O)[O-])cc1)/C(=C/c1ccc(Cl)cc1)NC(=O)c1ccccc1 | inactive |  |
| COc1cccc(CCNCc2ccc(Br)cc2)c1 | inconclusive: 0.794 µM [inhibitor, full curve, poor fit] |  |
| CCOc1ccc(N2C(=O)CC(=O)NC2=O)cc1 | inconclusive: 89.1 µM [inhibitor, single point] |  |
| CCN1CCN(Cc2ccc(OC(F)(F)F)cc2)CC1 | inconclusive: 6.31 µM [inhibitor, full curve] |  |
| CCC(=NCc1ccco1)c1c(O)n(C2CCCCC2)c(=O)[nH]c1=O | inconclusive: 39.8 µM [inhibitor, partial curve, poor fit] |  |
| COc1ccc(N(C(=O)Oc2c(C)cccc2C)c2ccnc(Nc3ccc(N4CCN(C)CC4)cc3)n2)c(OC)c1 | inconclusive: 38.5 µM [inhibitor, single point] |  |
| COc1ccc2c(c1)C1(CCN(C(=O)COc3ccc(Cl)cc3)C1)C(=O)N2C (stereo not given) | inconclusive: 25.1 µM [inhibitor, full curve] |  |
| C[N+](C)(C)CCOC(=O)CBr | inconclusive: 31.6 µM [inhibitor, partial curve, poor fit] |  |

| SMILES | Potency | activity change, negative = inhibition |
| --- | --- | --- |
| Cc1sc2ccccc2c1CC1=NCCN1 | inconclusive: 0.398 µM [inhibitor, full curve, poor fit] |  |
| COC1C(O)C(C)OC(OC2CCC3(C)C(CC[C@@H]4[C@@H]3CCC3(C)C(C5=CC(=O)OC5)C(O)CC43O)C2)C1O (stereo not given in full) | inconclusive: 17.8 µM [inhibitor, partial curve, poor fit] |  |
| CCCCCSc1cc(O)c(C(CNC)C(C)C)cc1OC (stereo not given) | inconclusive: 89.1 µM [inhibitor, partial curve, poor fit] |  |
| Cc1cc(C=C2C(=O)NC(=S)NC2=O)c(C)n1C1CCCC1 | inconclusive: 31.6 µM [inhibitor, partial curve] |  |
| N#Cc1ccc(/C=C/C(=O)O)cc1 | inactive |  |
| O=C(NCc1ccc2c(c1)OCO2)[C@H]1CN2CCC1C[C@@H]2Cn1cc(-c2cccc(O)c2)nn1 (stereo not given in full) |  | inconclusive: -33.3% [inhibitor] |
| CCOP(=O)(CCP(=O)(OCC)OCC)OCC.C[CH2][Sn]([Cl])([Cl])[CH2]C | inconclusive: 50.1 µM [inhibitor, partial curve, poor fit] |  |
| CCOP(=S)(OCC)SCSCC | inconclusive: 79.4 µM [inhibitor, partial curve, poor fit] |  |
| CCC(CC)c1cc([C@H]2CN3CC[C@H]2C[C@@H]3CNC(=O)Nc2ccc(OC)cc2)nc(-c2ccncc2)n1 | inactive |  |
| O=C1NC(=O)C2(Cc3c(nc4ccccn4c3=O)N3CCCCCC32)C(=O)N1Cc1ccccc1 (stereo not given) | inconclusive: 0.199 µM [inhibitor, full curve, poor fit] |  |
| Cc1cccc(OP(N)(=O)Oc2cccc(C)c2C)c1C | inconclusive: 100 µM [inhibitor, single point] |  |
| O[C@H]1[C@H](NCc2ccccn2)[C@H]2CO[C@H](O2)[C@@H]1N1CCCC1 | inactive |  |
| Cn1cccc1/C=C1\C(=O)NC(=O)N(Cc2ccco2)C1=O | inconclusive: 50.1 µM [inhibitor, partial curve, poor fit] |  |
| COc1ccc(CNCCc2ccccc2)cc1 | inconclusive: 141 µM [inhibitor, partial curve, poor fit] |  |
| CCC(C)n1c(O)c(C=NCCN2CCOCC2)c(=O)[nH]c1=S (stereo not given) | inconclusive: 70.8 µM [inhibitor, partial curve, poor fit] |  |
| CCn1nccc1C(=O)N1[C@H]2CC[C@@H]1c1cnc(-c3ccccc3)nc1C2 | inactive |  |
| CN(C)CCc1ccc(O)cc1 | inconclusive: 21.7 µM [inhibitor, partial curve, poor fit] |  |
| CCC[N+]12CCC(CC1)C(C(O)(c1ccccc1)c1ccccc1)C2 (stereo not given) | inconclusive: 112 µM [inhibitor, single point] |  |
| CC(Cc1ccccc1)NC(=O)Cc1ccc(N(C)C)cc1 (stereo not given) | inconclusive: 100 µM [inhibitor, partial curve, poor fit] |  |
| Cc1ccccc1O | inactive |  |
| Cc1ccccc1-c1ccc2c(c1)CNCc1cnnn1-2 | inconclusive: 31.6 µM [inhibitor, partial curve, poor fit] |  |
| CCOc1cc(/C=C2\C(=O)NC(=O)N(C)C2=O)cc([N+](=O)[O-])c1O | inconclusive: 39.8 µM [inhibitor, partial curve, poor fit] |  |

As entered above.
Entry for CCC(C)n1c(O)c(C=NCCN2CCOCC2)c(=O)[nH]c1=S (stereo not given) under Potency: inconclusive: 70.8 µM [inhibitor, partial curve, poor fit]
Entry for CCOP(=S)(OCC)SCSCC under Potency: inconclusive: 79.4 µM [inhibitor, partial curve, poor fit]
Entry for CCn1nccc1C(=O)N1[C@H]2CC[C@@H]1c1cnc(-c3ccccc3)nc1C2 under Potency: inactive
Entry for Cc1ccccc1-c1ccc2c(c1)CNCc1cnnn1-2 under Potency: inconclusive: 31.6 µM [inhibitor, partial curve, poor fit]
Entry for CCOP(=O)(CCP(=O)(OCC)OCC)OCC.C[CH2][Sn]([Cl])([Cl])[CH2]C under Potency: inconclusive: 50.1 µM [inhibitor, partial curve, poor fit]

Additional records:

| SMILES | Potency | activity change, negative = inhibition |
| --- | --- | --- |
| Cc1ccc(/C=C2/C(=O)NC(=O)N(CC3CCCO3)C2=O)s1 (stereo not given) | inconclusive: 56.2 µM [inhibitor, partial curve, poor fit] |  |
| Clc1cccc(N2Cc3ccccc3-n3nncc3C2)c1 | inconclusive: 141 µM [inhibitor, single point] |  |
| Cc1nc(-c2ccc(N(C)C)cc2)cc([C@H]2CN3CC[C@H]2C[C@@H]3COC(=O)Nc2ccc(C(C)C)cc2)n1 | inactive |  |
| Clc1ccccc1CN1CCN(c2ccccc2Cl)CC1 | inconclusive: 0.316 µM [inhibitor, full curve, poor fit] |  |
| Nc1ccc(Br)cc1C(=O)c1ccccc1 | inconclusive: 112 µM [inhibitor, single point] |  |
| CCOC(=O)C1=C(N)Oc2c(c(=O)oc3ccccc23)C12C(=O)Nc1ccc(Br)cc12 (stereo not given) | inconclusive: 50.1 µM [inhibitor, single point] |  |
| CC1N(O)C2CCCCCC2N1O (stereo not given) | inconclusive: 31.6 µM [inhibitor, partial curve, poor fit] |  |
| CC(C)NC(=O)N1CCC2(CCNCC2)CC1 | inactive |  |
| O=C(CSC(c1ccccc1)c1ccccc1)Nc1ccc2c(c1)OCCCO2 | inactive |  |
| CCC(C)C1N=C(c2ccccc2)c2cc(Cl)ccc2N(CC(=O)NCc2ccco2)C1=O (stereo not given) | inconclusive: 11.2 µM [inhibitor, full curve, poor fit] |  |
| CCCCn1nnnc1C(c1cccs1)N1CCC2(CC1)C(=O)NCN2c1ccccc1 (stereo not given) | inconclusive: 100 µM [inhibitor, single point] |  |
| O=C(/C=C/c1c[nH]c2ccccc12)c1c(O)n(CCc2ccccc2)c(=O)[nH]c1=O | inactive |  |
| COc1cc(CNC2CN3CCC2CC3)cc(Cl)c1OCc1ccccc1Cl (stereo not given) | inconclusive: 56.2 µM [inhibitor, partial curve, poor fit] |  |
| CC1=CC(=Cc2sc3ccccc3[n+]2C)C=C(C)O1 | inconclusive: 50.1 µM [inhibitor, partial curve, poor fit] |  |
| COc1cc2c(cc1OCc1ccccc1)N([S+](=O)([O-])c1cn(C)cn1)CC21CCN(C)CC1 | inconclusive: 39.8 µM [inhibitor, partial curve, poor fit] |  |
| COc1cc2c3c(c1OC)Oc1ccc(cc1)C[C@H]1c4c(cc(OC)c(OC)c4Oc4ccc(cc4)C[C@@H]3N(C)CC2)CCN1C | inactive |  |
| Cc1cc(N2C(=O)C3CCCN3C2c2sccc2C)no1 (stereo not given) | inconclusive: 56.2 µM [inhibitor, single point] |  |
| CCN(CC)P(c1n(C)cc[n+]1C)N(CC)CC | inconclusive: 44.7 µM [inhibitor, partial curve, poor fit] |  |
| CCOC(=O)CC(SP(=S)(OC)OC)C(=O)OCC (stereo not given) | active: 23.3 µM and inconclusive: 14.4 µM [inhibitor, single point] |  |
| CC(C)NC(=O)NC(=O)CCl | inconclusive: 31.6 µM [inhibitor, partial curve, poor fit] |  |
| COc1ccc(CN2CCCCC2c2cccnc2)cc1C (stereo not given) | inconclusive: 8.91 µM [inhibitor, full curve, poor fit] |  |
